PubChem BioAssay AID1259308 – NCATS | 2017

Test: 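Genes whose loss raises luciferase production in HEK293 cells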 (primary screen)
Cells: human HEK293 embryonic kidney cells stably expressing firefly luciferase (HEK-CMV-Luc2-Hygro)
Reagent: single siRNA against human genes, 0.8 pmol siRNA per well
Duration: 72 h
Detection: 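Reporter luminescence and viable-cell signal on separate replicate plates, given as percent of non-targeting control and median/MAD z-scores, plus per-cell luciferase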
Direction: total luciferase, z-score and total luciferase, % of control: higher = more reporter protein produced; luciferase per cell, z-score: higher = more reporter output per viable cell; viable cells, % of control: higher = more viable cells
Hit rule: 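An siRNA counts as active if its total luciferase robust z-score exceeds 3; genes with two or more such siRNAs out of three were retested with fresh siRNAs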
Meaning of the calls: active = raised luciferase; inactive = no rise
The deposit covers about 59,000 reagents; this is a part drawn at random. In the full data, about 1,510 (2.6%) got an active call. 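Calls use total luciferase alone and ignore viability, so some active siRNAs may act by altering cell number.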 The numbers tell different reagents against one gene apart.

no.	gene	siRNA no.	total luciferase, z-score	total luciferase, % of control	luciferase per cell, z-score	viable cells, % of control	Call
1	SCGB3A1	1	-0.981	62.4	-0.666	83.1	inactive
2	SCGB3A1	2	-0.746	67	-1.16	102	inactive
3	SCGB3A1	3	1.11	104	0.392	105	inactive
4	GAS2L3	1	0.556	93	-0.262	111	inactive
5	GAS2L3	2	-0.338	75.2	-1.06	111	inactive
6	GAS2L3	3	-1.29	56.2	-1.24	87.2	inactive
7	SLC6A2	1	1.28	107	0.885	95	inactive
8	SLC6A2	2	-0.818	65.6	-0.921	93.5	inactive
9	SLC6A2	3	1.79	117	1.07	99	inactive
10	ARHGAP24	1	-0.28	76.3	-0.128	88.2	inactive
11	ARHGAP24	2	-0.238	77.2	-0.332	94.1	inactive
12	ARHGAP24	3	0.0239	82.4	-0.301	99.6	inactive
13	OTX2	1	-0.501	71.9	-1.12	108	inactive
14	OTX2	2	0.0505	82.9	0.415	83	inactive
15	OTX2	3	-1.37	54.6	0.112	59.2	inactive

Continued, starting with the last 5 of the part before.
no.	gene	siRNA no.	total luciferase, z-score	total luciferase, % of control	luciferase per cell, z-score	viable cells, % of control	Call
11	ARHGAP24	2	-0.238	77.2	-0.332	94.1	inactive
12	ARHGAP24	3	0.0239	82.4	-0.301	99.6	inactive
13	OTX2	1	-0.501	71.9	-1.12	108	inactive
14	OTX2	2	0.0505	82.9	0.415	83	inactive
15	OTX2	3	-1.37	54.6	0.112	59.2	inactive
16	NCAPG	1	-0.0736	80.4	0.496	78.9	inactive
17	NCAPG	2	-0.561	70.7	-0.234	84.1	inactive
18	NCAPG	3	-0.687	68.2	-0.799	94.1	inactive
19	KRTAP4-6	1	-0.928	63.4	-0.623	83.5	inactive
20	KRTAP4-6	2	0.78	97.4	0.892	86.1	inactive
21	KRTAP4-6	3	-0.0519	80.9	0.0535	89.1	inactive
22	RPGRIP1	1	-0.338	75.2	-0.231	89.2	inactive
23	RPGRIP1	2	-0.747	67	-0.121	77.3	inactive
24	RPGRIP1	3	-0.743	67.1	-0.626	88.4	inactive
25	PRRX1	1	0.00899	82.1	0.502	80.3	inactive
26	PRRX1	2	-0.0761	80.4	-0.557	104	inactive
27	PRRX1	3	-0.55	70.9	-0.802	97.9	inactive
28	PDCD6P1	1	0.283	87.5	0.822	78.8	inactive
29	PDCD6P1	2	-0.716	67.6	-0.0324	76.2	inactive
30	PDCD6P1	3	-2.25	37.2	-1.91	68.8	inactive
31	CELA3A	1	2.11	124	1.17	102	inactive
32	CELA3A	2	-0.307	75.8	-0.267	90.8	inactive
33	CELA3A	3	0.406	90	0.194	95.5	inactive
34	AKR1E2	1	0.102	83.9	0.366	85.2	inactive
35	AKR1E2	2	1.41	110	1.46	83.5	inactive
36	AKR1E2	3	0.934	100	-0.0354	113	inactive
37	CLRN1	1	-0.572	70.5	-0.747	95.9	inactive
38	CLRN1	2	0.718	96.2	0.739	88.5	inactive
39	CLRN1	3	1.5	112	0.815	101	inactive
